Measurements from paper PMC8748794.
These are yes or no findings as the source states them, for the method shown. Some entries that bind do so weakly or less than the wild type.

The chains behind the UniProt entries cited, without tags or fusion partners. Where a name states a change or a piece, a line headed by the entry shows the natural chain unless it says otherwise. Residues count along the entry.
UniProt P32558: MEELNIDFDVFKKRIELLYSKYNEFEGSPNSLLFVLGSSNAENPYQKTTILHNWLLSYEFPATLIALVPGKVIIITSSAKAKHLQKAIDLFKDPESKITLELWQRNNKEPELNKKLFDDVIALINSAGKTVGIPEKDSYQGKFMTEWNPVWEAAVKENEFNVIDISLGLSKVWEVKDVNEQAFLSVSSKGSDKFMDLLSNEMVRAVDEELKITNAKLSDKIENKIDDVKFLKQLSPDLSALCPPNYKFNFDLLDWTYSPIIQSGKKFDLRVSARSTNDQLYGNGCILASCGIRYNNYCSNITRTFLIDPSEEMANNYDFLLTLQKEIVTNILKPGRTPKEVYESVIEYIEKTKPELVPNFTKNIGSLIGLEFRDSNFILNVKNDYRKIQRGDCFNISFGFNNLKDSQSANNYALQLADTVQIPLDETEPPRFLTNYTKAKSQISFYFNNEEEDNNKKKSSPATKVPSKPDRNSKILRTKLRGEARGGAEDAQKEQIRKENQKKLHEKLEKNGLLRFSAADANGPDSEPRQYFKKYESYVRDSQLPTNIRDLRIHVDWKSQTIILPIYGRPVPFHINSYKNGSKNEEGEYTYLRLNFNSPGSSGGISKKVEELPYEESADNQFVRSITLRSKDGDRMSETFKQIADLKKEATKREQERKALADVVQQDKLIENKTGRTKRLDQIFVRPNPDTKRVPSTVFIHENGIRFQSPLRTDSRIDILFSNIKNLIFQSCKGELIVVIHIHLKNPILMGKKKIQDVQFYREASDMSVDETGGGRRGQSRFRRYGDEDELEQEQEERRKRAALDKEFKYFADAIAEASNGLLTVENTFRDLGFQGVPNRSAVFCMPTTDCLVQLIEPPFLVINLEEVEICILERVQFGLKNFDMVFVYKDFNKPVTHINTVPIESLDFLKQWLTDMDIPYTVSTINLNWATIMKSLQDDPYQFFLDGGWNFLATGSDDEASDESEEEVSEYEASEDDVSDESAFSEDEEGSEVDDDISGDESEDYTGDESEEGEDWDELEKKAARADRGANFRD
Spt16ΔC: residues 1-958 of P32558
UniProt Q04636: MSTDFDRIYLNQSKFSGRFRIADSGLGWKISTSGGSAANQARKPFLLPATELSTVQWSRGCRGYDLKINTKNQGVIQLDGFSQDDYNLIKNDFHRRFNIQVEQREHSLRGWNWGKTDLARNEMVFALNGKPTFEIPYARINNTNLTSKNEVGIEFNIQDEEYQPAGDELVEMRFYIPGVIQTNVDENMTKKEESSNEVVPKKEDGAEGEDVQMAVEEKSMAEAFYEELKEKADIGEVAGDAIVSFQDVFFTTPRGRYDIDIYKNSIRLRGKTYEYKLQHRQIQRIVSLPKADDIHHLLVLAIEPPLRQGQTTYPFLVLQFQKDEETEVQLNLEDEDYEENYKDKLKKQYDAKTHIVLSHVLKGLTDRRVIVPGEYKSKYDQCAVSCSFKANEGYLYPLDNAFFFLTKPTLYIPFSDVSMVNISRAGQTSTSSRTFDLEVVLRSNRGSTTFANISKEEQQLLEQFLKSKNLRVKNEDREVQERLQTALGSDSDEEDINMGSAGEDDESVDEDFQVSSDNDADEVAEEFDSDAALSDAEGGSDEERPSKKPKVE

What was measured:
[1] = target: Spt16 (suppressor of Ty), larger subunit of yeast FACT (yeast) (UniProt P32558); experiment: co-purification; purified as heterodimers from yeast cells overexpressing both proteins
Spt16ΔC (yeast) = Spt16ΔC (yeast) (UniProt P32558); experiment: as above

binding [1]	binding (Spt16ΔC (yeast))	Substance
binds	binds	Pob3 (polymerase one binding), smaller subunit of yeast FACT (from UniProt Q04636 1-552)
binds	binds	Pob3ΔC (from UniProt Q04636 1-477) (domain or fragment)
